Experimental data taken from patent US11359184.

What was measured:
Assay in all cases: activity assay
[1] = molecular target: 007-T7 fusion (Thermotoga lacI-like DBD fused to T7 RNAP) (UniProt P00573); conditions: molecular beacon transcription assay; more active at high temperature than wild type; purified recombinant protein; protein details: His6, DBD fusion
[2] = molecular target: 109-T7 fusion (Pyrococcus furiosus HTH DBD fused to T7 RNAP) (UniProt P00573); conditions: molecular beacon transcription assay; more active at high temperature than wild type; purified recombinant protein; protein details: His6, DBD fusion
[3] = molecular target: SS07-T7 fusion (sso7d DBD fused to T7 RNAP) (UniProt P00573); conditions: molecular beacon transcription assay; more active at high temperature than wild type; purified recombinant protein; protein details: His6, sso7d fusion
[4] = molecular target: T7 RNA polymerase variant SEQ ID NO:70 (UniProt P00573); conditions: improved thermostability at 50 C versus wild type; purified recombinant protein; protein details: N-terminal His6
[5] = molecular target: T7 RNA polymerase wild type (UniProt P00573); conditions: in vitro transcription; activity lost at high temperature; Mg2+; purified recombinant protein; protein details: N-terminal His6

Measured: activity on this sequence

TAATACGACTCACTATAG (double strand) [T7 promoter in linear DNA template]
active: all assays above
